One assay deals with STING V155M-HA (human) (UniProt Q86WV6). The assay is described as follows: co-IP.
For another assay, the target named is STING R284S-HA (human) (UniProt Q86WV6). The assay is described as follows: co-IP.

Sequences of proteins named here, by UniProt entry; tags and fusion partners are left off. A change or cut given only in a name is not applied to a line headed by its entry.
UniProt Q86WV6, whole entry, looked up, stated change not applied: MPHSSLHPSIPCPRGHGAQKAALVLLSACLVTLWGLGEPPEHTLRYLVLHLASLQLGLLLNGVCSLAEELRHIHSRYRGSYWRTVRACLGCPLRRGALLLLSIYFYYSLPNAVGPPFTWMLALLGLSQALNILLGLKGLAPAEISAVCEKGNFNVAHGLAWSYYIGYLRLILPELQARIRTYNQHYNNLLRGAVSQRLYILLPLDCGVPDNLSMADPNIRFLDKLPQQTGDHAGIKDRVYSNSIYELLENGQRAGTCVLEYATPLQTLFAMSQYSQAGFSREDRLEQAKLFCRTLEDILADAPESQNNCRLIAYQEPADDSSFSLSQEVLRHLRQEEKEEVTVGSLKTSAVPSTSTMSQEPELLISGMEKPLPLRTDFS
UniProt O14964, whole entry: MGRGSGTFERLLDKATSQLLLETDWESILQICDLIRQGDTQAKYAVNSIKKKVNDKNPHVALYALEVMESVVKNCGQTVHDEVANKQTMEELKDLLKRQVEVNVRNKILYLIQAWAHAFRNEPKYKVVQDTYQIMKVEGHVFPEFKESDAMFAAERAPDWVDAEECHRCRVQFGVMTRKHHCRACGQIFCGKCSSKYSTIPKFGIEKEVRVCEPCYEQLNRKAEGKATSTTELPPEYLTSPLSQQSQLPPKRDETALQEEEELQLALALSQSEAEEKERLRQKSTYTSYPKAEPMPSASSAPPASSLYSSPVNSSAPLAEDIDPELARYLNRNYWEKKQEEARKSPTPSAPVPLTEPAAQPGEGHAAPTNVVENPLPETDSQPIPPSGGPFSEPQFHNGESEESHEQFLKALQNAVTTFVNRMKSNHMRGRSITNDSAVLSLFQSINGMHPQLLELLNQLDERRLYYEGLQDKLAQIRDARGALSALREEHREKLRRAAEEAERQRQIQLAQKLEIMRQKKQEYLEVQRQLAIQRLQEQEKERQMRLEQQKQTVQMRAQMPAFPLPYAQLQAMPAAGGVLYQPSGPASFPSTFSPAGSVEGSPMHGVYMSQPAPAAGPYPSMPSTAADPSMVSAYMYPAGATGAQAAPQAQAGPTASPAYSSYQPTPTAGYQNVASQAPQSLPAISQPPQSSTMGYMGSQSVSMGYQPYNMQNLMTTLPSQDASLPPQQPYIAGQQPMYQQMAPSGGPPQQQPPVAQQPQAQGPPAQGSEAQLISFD
UniProt Q8NEZ2, whole entry: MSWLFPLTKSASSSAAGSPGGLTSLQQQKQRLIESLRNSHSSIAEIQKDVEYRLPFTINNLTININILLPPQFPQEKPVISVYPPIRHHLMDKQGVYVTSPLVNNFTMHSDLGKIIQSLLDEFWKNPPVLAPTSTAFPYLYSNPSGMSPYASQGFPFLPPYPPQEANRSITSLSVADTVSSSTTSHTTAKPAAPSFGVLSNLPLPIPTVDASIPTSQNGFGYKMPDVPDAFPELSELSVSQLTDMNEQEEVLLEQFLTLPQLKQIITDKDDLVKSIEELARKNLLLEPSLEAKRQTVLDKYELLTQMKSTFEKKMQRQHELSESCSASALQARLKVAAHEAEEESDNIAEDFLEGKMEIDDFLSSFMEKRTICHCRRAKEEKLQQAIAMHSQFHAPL

Results are given in words; binding and its absence hold for the method and conditions named. In cells and extracts the contact can be indirect. Some binding calls cover weakened binding; strength is not graded here.

On to “mScarlet-HGS (from UniProt O14964 1-777)”, for which the binding result in the assay with STING V155M-HA (human) and with STING R284S-HA (human) was “binds” in each case.

Regarding “mScarlet-VPS37A (from UniProt Q8NEZ2 1-397)”, the binding result with STING V155M-HA (human) and in the assay with STING R284S-HA (human) was “binds” throughout.

Values taken from paper doi:10.1101/2022.09.22.509044.
